Assay results from doi:10.1101/2021.07.07.451439.
Like-named read-outs stand apart in the source and are kept apart here. Results are given in words; binding and its absence hold for the method and conditions named. In cells and extracts the contact can be indirect. A yes stands for co-enrichment or nearness to the bait. Other partners may have been found. Each block holds one molecule with its values, some of them ahead of it.

By UniProt entry, the sequences of proteins in these tests, tags left out. Where a name states a change or a piece, a line headed by the entry shows the natural chain unless it says otherwise.
UniProt Q96EI5: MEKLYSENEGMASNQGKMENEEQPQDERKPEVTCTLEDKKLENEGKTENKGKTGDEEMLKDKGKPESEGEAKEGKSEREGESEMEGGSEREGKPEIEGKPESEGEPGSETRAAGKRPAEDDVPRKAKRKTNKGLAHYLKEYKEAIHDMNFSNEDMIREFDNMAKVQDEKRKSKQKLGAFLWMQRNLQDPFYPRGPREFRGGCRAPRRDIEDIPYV
UniProt Q93009: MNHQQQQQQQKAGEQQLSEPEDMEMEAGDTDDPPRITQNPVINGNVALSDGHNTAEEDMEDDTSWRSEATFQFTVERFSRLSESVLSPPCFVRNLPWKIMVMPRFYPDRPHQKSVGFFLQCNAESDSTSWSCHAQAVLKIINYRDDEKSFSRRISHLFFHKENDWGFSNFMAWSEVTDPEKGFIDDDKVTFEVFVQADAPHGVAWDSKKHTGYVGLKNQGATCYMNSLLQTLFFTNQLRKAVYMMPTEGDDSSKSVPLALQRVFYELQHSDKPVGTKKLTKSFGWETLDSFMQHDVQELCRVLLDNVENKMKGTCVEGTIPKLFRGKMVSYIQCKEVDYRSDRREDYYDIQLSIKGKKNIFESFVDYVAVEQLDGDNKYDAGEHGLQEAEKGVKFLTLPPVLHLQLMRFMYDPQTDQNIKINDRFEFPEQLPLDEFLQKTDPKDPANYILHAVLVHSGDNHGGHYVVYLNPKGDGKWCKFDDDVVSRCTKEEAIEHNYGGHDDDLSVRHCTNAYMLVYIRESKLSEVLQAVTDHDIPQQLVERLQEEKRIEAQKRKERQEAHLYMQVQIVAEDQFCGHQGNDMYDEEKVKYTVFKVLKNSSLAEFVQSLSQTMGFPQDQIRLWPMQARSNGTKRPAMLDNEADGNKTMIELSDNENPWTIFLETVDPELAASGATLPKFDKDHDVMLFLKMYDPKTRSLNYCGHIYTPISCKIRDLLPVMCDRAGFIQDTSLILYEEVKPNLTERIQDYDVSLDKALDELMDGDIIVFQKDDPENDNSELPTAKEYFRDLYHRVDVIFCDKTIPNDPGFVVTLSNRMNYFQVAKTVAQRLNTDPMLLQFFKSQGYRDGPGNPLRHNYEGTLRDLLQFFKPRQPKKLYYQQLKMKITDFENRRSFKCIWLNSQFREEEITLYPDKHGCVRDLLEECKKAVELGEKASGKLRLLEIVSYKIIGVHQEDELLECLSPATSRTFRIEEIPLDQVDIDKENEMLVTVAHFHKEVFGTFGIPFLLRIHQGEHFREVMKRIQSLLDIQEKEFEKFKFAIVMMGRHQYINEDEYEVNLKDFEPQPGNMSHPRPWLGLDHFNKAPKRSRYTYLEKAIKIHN
UniProt Q13257: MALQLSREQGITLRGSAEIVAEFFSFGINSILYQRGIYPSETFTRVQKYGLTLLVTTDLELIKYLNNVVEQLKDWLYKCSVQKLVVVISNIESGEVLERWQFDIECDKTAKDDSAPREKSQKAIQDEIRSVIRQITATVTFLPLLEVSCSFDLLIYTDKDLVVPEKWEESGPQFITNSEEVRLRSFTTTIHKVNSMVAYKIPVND
UniProt O43684: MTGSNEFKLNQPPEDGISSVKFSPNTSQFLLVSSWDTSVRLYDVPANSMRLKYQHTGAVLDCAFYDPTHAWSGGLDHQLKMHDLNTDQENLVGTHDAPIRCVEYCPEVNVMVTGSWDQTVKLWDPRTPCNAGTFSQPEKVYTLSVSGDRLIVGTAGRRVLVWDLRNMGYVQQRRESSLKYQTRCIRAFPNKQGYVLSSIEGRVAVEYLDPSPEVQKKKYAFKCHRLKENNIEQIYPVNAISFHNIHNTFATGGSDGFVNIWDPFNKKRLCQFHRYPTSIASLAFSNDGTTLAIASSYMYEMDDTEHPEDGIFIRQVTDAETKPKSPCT

Experiments:
Assay in all cases: affinity purification with mass spectrometry
[1] = target: GFP-TCEAL4 WT isoform-1 (human) (UniProt Q96EI5)
[2] = target: GFP-TCEAL4 WT isoform-1 (human) (UniProt Q96EI5); remark: listed apart in the source
GFP-USP7 S18E = GFP-USP7 S18E (UniProt Q93009)
GFP-USP7 WT = GFP-USP7 WT (UniProt Q93009)
GFP-USP7 S18A = GFP-USP7 S18A (UniProt Q93009)

Molecule: MAD2 (endogenous) (from UniProt Q13257 1-205)
binding [1]: binds

B1: USP15 (endogenous) (enzyme, UniProt Q9Y4E8 1-981)
chain: MAEGGAADLDTQRSDIATLLKTSLRKGDTWYLVDSRWFKQWKKYVGFDSWDKYQMGDQNVYPGPIDNSGLLKDGDAQSLKEHLIDELDYILLPTEGWNKLVSWYTLMEGQEPIARKVVEQGMFVKHCKVEVYLTELKLCENGNMNNVVTRRFSKADTIDTIEKEIRKIFSIPDEKETRLWNKYMSNTFEPLNKPDSTIQDAGLYQGQVLVIEQKNEDGTWPRGPSTPKSPGASNFSTLPKISPSSLSNNYNNMNNRNVKNSNYCLPSYTAYKNYDYSEPGRNNEQPGLCGLSNLGNTCFMNSAIQCLSNTPPLTEYFLNDKYQEELNFDNPLGMRGEIAKSYAELIKQMWSGKFSYVTPRAFKTQVGRFAPQFSGYQQQDCQELLAFLLDGLHEDLNRIRKKPYIQLKDADGRPDKVVAEEAWENHLKRNDSIIVDIFHGLFKSTLVCPECAKISVTFDPFCYLTLPLPMKKERTLEVYLVRMDPLTKPMQYKVVVPKIGNILDLCTALSALSGIPADKMIVTDIYNHRFHRIFAMDENLSSIMERDDIYVFEININRTEDTEHVIIPVCLREKFRHSSYTHHTGSSLFGQPFLMAVPRNNTEDKLYNLLLLRMCRYVKISTETEETEGSLHCCKDQNINGNGPNGIHEEGSPSEMETDEPDDESSQDQELPSENENSQSEDSVGGDNDSENGLCTEDTCKGQLTGHKKRLFTFQFNNLGNTDINYIKDDTRHIRFDDRQLRLDERSFLALDWDPDLKKRYFDENAAEDFEKHESVEYKPPKKPFVKLKDCIELFTTKEKLGAEDPWYCPNCKEHQQATKKLDLWSLPPVLVVHLKRFSYSRYMRDKLDTLVDFPINDLDMSEFLINPNAGPCRYNLIAVSNHYGGMGGGHYTAFAKNKDDGKWYYFDDSSVSTASEDQIVSKAAYVLFYQRQDTFSGTGFFPLDRETKGASAATGIPLESDEDSNDNDNDIENENCMHTN
binding [2]: binds

B3: MAGED4 (endogenous) (protein, UniProt Q96JG8 1-741)
chain: MAEGSFSVQSESYSVEDMDEGSDEVGEEEMVEGNDYEEFGAFGGYGTLTSFDIHILRAFGSLGPGLRILSNEPWELENPVLAQTLVEALQLDPETLANETAARAANVARAAASNRAARAAAAAARTAFSQVVASHRVATPQVSGEDTQPTTYAAEAQGPTPEPPLASPQTSQMLVTSKMAAPEAPATSAQSQTGSPAQEAATEGPSSACAFSQAPCAREVDANRPSTAFLGQNDVFDFTQPAGVSGMAFPRPKRPAPAQEAATEGPSAASGVPQTGPGREVAATRPKTTKSGKALAKTRWVEPQNVVAAAAAKAKMATSIPEPEGAAAATAQHSAEPWARMGGKRTKKSKHLDDEYESSEEERETPAVPPTWRASQPSLTVRAQLAPRPPMAPRSQIPSRHVLCLPPRNVTLLQERANKLVKYLMIKDYKKIPIKRADMLKDVIREYDEHFPEIIERATYTLEKKFGIHLKEIDKEEHLYILVCTRDSSARLLGKTKDTPRLSLLLVILGVIFMNGNRASEAVLWEALRKMGLRPGVRHPFLGDLRKLITDDFVKQKYLEYKKIPNSNPPEYEFLWGLRARHETSKMRVLRFIAQNQNRDPREWKAHFLEAVDDAFKTMDVDMAEEHARAQMRAQMNIGDEALIGRWSWDDIQVELLTWDEDGDFGDAWARIPFAFWARYHQYILNSNRANRRATWRAGVSSGTNGGASTSVLDGPSTSSTIRTRNAARAGASFFSWIQHR
binding (GFP-USP7 WT): binds
binding (GFP-USP7 S18A): binds
binding (GFP-USP7 S18E): binds

B5: RAE1 (endogenous) (protein, UniProt P78406 1-368)
chain: MSLFGTTSGFGTSGTSMFGSATTDNHNPMKDIEVTSSPDDSIGCLSFSPPTLPGNFLIAGSWANDVRCWEVQDSGQTIPKAQQMHTGPVLDVCWSDDGSKVFTASCDKTAKMWDLSSNQAIQIAQHDAPVKTIHWIKAPNYSCVMTGSWDKTLKFWDTRSSNPMMVLQLPERCYCADVIYPMAVVATAERGLIVYQLENQPSEFRRIESPLKHQHRCVAIFKDKQNKPTGFALGSIEGRVAIHYINPPNPAKDNFTFKCHRSNGTNTSAPQDIYAVNGIAFHPVHGTLATVGSDGRFSFWDKDARTKLKTSEQLDQPISACCFNHNGNIFAYASSYDWSKGHEFYNPQKKNYIFLRNAAEELKPRNKK
binding [2]: binds

Continued, values first:

binding [1]: binds
Molecule: BUB3 (endogenous) (from UniProt O43684 1-328)

binding (GFP-USP7 S18E): binds
B2: MAGED1 (endogenous) (protein, UniProt Q9Y5V3 1-778)
chain: MAQKMDCGAGLLGFQAEASVEDSALLMQTLMEAIQISEAPPTNQATAAASPQSSQPPTANEMADIQVSAAAARPKSAFKVQNATTKGPNGVYDFSQAHNAKDVPNTQPKAAFKSQNATPKGPNAAYDFSQAATTGELAANKSEMAFKAQNATTKVGPNATYNFSQSLNANDLANSRPKTPFKAWNDTTKAPTADTQTQNVNQAKMATSQADIETDPGISEPDGATAQTSADGSQAQNLESRTIIRGKRTRKINNLNVEENSSGDQRRAPLAAGTWRSAPVPVTTQNPPGAPPNVLWQTPLAWQNPSGWQNQTARQTPPARQSPPARQTPPAWQNPVAWQNPVIWPNPVIWQNPVIWPNPIVWPGPVVWPNPLAWQNPPGWQTPPGWQTPPGWQGPPDWQGPPDWPLPPDWPLPPDWPLPTDWPLPPDWIPADWPIPPDWQNLRPSPNLRPSPNSRASQNPGAAQPRDVALLQERANKLVKYLMLKDYTKVPIKRSEMLRDIIREYTDVYPEIIERACFVLEKKFGIQLKEIDKEEHLYILISTPESLAGILGTTKDTPKLGLLLVILGVIFMNGNRASEAVLWEALRKMGLRPGVRHPLLGDLRKLLTYEFVKQKYLDYRRVPNSNPPEYEFLWGLRSYHETSKMKVLRFIAEVQKRDPRDWTAQFMEAADEALDALDAAAAEAEARAEARTRMGIGDEAVSGPWSWDDIEFELLTWDEEGDFGDPWSRIPFTFWARYHQNARSRFPQTFAGPIIGPGGTASANFAANFGAIGFFWVE

binding (GFP-USP7 S18E): binds
B4: PJA1 (endogenous) (protein, UniProt Q8NG27 1-643)
chain: MGQESSKPVWPNPTGGYQSNTGRRYGRRHAYVSFRPPTSQRERIASQRKTNSEVPMHRSAPSQTTKRSRSPFSTTRRSWDDSESSGTNLNIDNEDYSRYPPREYRASGSRRGMAYGHIDSYGADDSEEEGAGPVERPPVRGKTGKFKDDKLYDPEKGARSLAGPPPHFSSFSRDVREERDKLDPVPAARCSASRADFLPQSSVASQSSSEGKLATKGDSSERERREQNLPARPSRAPVSICGGGENTSKSAEEPVVRPKIRNLASPNCVKPKIFFDTDDDDDMPHSTSRWRDTANDNEGHSDGLARRGRGESSSGYPEPKYPEDKREARSDQVKPEKVPRRRRTMADPDFWTHSDDYYKYCDEDSDSDKEWIAALRRKYRSREQTLSSSGESWETLPGKEEREPPQAKVSASTGTSPGPGASASAGAGAGASAGSNGSNYLEEVREPSLQEEQASLEEGEIPWLQYHENDSSSEGDNDSGHELMQPGVFMLDGNNNLEDDSSVSEDLEVDWSLFDGFADGLGVAEAISYVDPQFLTYMALEERLAQAMETALAHLESLAVDVEVANPPASKESIDALPEILVTEDHGAVGQEMCCPICCSEYVKGEVATELPCHHYFHKPCVSIWLQKSGTCPVCRCMFPPPL
